These results are taken from article PMC8327854.

The target of assay [1] is T1, α-dystroglycan lacking functional glycosylation (from WWS FKRP mutant cells) (human (endogenous in iPS cells and iPS cell-derived myotubes)) (UniProt Q14118).
T1 sequence: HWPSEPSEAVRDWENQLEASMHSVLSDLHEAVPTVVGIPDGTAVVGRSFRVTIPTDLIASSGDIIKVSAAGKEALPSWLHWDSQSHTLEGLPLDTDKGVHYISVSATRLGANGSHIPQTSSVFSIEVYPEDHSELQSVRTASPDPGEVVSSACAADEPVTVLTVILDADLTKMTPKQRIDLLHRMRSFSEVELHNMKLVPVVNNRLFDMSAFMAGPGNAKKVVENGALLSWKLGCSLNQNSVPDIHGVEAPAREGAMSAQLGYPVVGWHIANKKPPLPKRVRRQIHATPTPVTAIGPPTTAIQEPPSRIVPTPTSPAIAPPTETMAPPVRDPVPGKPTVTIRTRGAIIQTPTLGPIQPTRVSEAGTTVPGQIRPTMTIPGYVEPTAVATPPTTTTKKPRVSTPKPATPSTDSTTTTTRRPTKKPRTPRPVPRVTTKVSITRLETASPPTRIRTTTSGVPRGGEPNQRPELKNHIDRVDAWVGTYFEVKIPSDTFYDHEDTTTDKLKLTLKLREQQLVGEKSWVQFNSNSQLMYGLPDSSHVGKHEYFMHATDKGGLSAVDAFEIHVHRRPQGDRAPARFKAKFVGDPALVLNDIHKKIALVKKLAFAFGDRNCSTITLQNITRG
Kind of assay: far-Western, overlay or dot blot; laminin overlay assay (LOA) on samples of undifferentiated iPS cells (Figure S1E); only the binder purified.

For assay [2], the target named is T1, α-dystroglycan lacking functional glycosylation (from WWS FKRP mutant cells) (human (endogenous in iPS cells and iPS cell-derived myotubes)). Briefly: far-Western, overlay or dot blot; laminin overlay assay (LOA): WGA-agarose eluates of myotube lysates (400 ug protein) resolved on 4%-20% SDS-PAGE, on PVDF; overlaid with 1 mg/ml native laminin in TBS with 1 mM CaCl2, 1 mM MgCl2, 3% BSA, 2 hr at room temperature; detected with anti-laminin; only the binder purified.

Assay [3] has as its target T2, α-dystroglycan with functional glycosylation (human (endogenous in iPS cell-derived myotubes)) (UniProt Q14118).
T2 sequence (chain, functional glycosylation (IIH6-reactive, laminin-binding)): T1 sequence
Described as above.

Results are given in words; binding and its absence hold for the method and conditions named. For part of these data: Binding calls can cover weak binding; strength is not graded here.

For native laminin (L2020 Sigma) (complex), the binding entry in assay [1] is reported as “no binding”; in assay [2], “no binding (tested: 1 mg/ml)”; in assay [3], “binds”.
